From paper PMC5438986 come the findings set out here.

Protein sequences, listed by entry. Tags and fused reporters are not part of them.
UniProt Q9UKV8: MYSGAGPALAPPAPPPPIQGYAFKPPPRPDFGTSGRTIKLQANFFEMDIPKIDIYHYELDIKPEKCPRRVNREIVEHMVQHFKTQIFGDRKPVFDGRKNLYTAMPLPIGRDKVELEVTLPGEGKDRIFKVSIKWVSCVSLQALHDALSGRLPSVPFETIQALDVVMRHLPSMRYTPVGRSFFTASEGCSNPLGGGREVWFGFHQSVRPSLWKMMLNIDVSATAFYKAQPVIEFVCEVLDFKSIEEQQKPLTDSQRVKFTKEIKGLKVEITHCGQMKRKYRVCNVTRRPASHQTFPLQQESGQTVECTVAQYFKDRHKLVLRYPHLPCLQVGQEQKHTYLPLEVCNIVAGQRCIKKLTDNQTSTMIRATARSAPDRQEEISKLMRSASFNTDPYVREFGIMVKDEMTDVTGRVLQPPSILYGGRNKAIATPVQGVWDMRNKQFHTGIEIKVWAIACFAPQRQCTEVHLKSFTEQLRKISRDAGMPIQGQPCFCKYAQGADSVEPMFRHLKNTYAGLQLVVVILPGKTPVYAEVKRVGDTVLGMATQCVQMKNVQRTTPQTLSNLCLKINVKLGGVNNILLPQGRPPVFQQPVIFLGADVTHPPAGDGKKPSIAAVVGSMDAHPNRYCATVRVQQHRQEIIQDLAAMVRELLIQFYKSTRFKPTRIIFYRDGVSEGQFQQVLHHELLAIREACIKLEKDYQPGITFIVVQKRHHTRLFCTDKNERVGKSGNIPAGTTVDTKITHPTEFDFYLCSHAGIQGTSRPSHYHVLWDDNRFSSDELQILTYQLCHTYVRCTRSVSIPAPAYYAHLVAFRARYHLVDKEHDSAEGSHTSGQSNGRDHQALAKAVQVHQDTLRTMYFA
UniProt Q92793: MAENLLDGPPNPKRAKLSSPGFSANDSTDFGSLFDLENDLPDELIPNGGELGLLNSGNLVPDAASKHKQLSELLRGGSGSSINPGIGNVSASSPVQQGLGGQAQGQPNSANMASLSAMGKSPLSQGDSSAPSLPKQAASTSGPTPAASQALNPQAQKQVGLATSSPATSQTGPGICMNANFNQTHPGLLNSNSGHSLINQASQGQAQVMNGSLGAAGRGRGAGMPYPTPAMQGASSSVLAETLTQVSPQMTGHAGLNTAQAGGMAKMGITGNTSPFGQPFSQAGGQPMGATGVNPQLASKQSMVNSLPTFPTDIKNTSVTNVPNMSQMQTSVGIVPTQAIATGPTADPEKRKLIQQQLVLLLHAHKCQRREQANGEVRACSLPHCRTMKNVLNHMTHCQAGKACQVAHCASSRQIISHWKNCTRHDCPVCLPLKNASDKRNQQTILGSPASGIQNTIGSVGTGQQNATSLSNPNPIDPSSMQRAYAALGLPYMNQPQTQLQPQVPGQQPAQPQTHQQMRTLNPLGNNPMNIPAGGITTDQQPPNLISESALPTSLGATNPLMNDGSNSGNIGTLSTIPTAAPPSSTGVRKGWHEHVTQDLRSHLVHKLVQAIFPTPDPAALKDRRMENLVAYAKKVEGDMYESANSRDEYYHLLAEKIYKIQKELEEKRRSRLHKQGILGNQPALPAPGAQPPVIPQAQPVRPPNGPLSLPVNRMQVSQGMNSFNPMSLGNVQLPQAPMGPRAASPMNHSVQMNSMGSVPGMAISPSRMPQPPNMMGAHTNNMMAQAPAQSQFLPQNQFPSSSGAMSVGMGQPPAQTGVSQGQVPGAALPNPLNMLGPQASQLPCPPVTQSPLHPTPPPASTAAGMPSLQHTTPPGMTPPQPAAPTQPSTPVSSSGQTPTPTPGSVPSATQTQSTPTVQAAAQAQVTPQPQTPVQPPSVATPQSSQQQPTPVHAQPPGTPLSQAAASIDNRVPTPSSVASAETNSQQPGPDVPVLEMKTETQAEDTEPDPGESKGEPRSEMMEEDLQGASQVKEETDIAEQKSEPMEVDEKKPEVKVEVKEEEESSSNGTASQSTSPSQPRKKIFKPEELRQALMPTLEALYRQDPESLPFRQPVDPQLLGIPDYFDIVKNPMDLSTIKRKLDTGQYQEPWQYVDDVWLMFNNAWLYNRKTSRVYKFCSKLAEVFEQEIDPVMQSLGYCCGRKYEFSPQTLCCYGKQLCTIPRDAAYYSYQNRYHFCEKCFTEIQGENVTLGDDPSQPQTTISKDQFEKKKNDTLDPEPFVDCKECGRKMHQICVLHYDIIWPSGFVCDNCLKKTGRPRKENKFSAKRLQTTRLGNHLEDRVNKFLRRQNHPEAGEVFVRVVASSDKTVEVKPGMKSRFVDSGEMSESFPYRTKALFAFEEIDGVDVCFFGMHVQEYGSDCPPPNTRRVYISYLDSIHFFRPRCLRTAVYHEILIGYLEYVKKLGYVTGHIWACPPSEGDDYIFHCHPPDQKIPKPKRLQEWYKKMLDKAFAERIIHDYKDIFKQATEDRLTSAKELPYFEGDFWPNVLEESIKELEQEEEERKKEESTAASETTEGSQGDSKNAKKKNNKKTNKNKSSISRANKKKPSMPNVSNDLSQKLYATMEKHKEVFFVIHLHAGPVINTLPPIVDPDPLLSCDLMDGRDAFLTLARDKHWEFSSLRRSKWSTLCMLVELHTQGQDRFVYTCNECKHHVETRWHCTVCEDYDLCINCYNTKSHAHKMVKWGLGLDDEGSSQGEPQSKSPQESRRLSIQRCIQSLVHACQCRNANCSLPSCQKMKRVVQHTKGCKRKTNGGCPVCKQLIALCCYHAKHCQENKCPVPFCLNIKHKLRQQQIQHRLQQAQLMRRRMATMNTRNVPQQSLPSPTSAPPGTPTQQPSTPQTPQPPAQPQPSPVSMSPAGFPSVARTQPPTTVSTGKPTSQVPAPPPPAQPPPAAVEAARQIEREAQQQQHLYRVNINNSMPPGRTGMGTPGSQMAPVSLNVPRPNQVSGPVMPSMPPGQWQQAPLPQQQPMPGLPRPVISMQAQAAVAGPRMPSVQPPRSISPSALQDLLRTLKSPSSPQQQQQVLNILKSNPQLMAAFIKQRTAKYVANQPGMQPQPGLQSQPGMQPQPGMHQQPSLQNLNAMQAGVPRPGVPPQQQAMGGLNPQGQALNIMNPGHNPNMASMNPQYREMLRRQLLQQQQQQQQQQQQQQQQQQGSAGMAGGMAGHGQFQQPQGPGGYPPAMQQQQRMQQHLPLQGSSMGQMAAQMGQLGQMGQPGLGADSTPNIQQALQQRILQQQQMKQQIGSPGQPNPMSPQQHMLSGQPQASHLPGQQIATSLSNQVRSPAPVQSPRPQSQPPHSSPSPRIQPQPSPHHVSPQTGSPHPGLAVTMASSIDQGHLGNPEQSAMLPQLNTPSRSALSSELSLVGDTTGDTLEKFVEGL

The target of assay [1] is T1, HA-IRF3 (UniProt Q14653).
T1 sequence: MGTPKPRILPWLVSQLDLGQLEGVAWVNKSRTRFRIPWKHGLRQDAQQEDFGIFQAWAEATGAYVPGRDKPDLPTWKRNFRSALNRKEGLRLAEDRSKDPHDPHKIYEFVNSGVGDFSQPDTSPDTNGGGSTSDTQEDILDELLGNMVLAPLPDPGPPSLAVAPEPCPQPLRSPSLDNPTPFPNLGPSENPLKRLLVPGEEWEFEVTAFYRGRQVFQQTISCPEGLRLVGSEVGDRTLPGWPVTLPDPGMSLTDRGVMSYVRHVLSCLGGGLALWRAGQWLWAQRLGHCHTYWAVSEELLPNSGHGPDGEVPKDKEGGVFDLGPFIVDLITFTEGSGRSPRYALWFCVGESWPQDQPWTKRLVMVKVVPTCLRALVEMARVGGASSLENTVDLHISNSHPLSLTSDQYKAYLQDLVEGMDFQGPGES
Kind of assay: co-IP; HEK293T cells co-transfected with two tagged proteins, lysed in RIPA buffer 36 h later; precipitated with tag antibodies (anti-HA, anti-Flag) and Protein A/G agarose, western blot. In general terms: A western blot detects proteins with antibodies after separation by electrophoresis.

The target in assay [2] is T2, Flag-IRF3 (UniProt Q14653).
T2 sequence: T1 sequence
The description is as above.

Assay [3] addresses T3, Flag-IRF3(198–427) (UniProt Q14653).
T3 sequence: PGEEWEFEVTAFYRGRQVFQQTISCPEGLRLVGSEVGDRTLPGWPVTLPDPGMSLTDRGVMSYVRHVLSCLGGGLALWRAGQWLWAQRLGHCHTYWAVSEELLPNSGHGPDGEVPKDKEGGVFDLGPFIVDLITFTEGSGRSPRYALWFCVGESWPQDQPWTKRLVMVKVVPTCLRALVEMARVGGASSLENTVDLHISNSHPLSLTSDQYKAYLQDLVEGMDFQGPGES
The description is as above.

The target in assay [4] is T4, endogenous IRF3 (human (endogenous in HEK293T and A549)) (UniProt Q14653).
T4 sequence: T1 sequence
Kind of assay: co-IP; endogenous proteins; HEK293T cells stimulated with SeV for 3 h; anti-IRF3 antibody used for immunoprecipitation.

Assay [5] has as its target T4, endogenous IRF3 (human (endogenous in HEK293T and A549)). Nature of the assay: co-IP; endogenous proteins; A549 cells stimulated with SeV for 6 h; anti-IRF3 antibody used for immunoprecipitation.
The target of assay [6] is T2, Flag-IRF3. Nature of the assay: co-IP; HEK293T cells co-transfected with Flag-IRF3 or Flag-IRF3-5D and HA-AGO2, HA-AGO2-MIDdel or empty vector; after 36 h stimulated with SeV for 12 h; lysates precipitated with anti-Flag and blotted with anti-CBP (endogenous CBP).

Results are given in words; binding and its absence hold for the method and conditions named. Binding seen in cells or lysates may run through a third protein. Some results given as binding are weak or reduced against the parent protein; the word gives no strength. For part of these data: Where a sequence is shown, tags or fusion partners need not be part of it.

On to Flag-AGO2 (from UniProt Q9UKV8 1-859), for which, in assay [1], the binding entry is “binds”.
HA-AGO2 (from UniProt Q9UKV8 1-859): the binding entry in assay [2] and in assay [3] was “binds” throughout.
With “endogenous AGO2 (from UniProt Q9UKV8 1-859)”, the binding result in assay [4] and in assay [5] was “binds” each time.
As for “endogenous CBP (from UniProt Q92793 1-2442)”, the binding result in assay [6] is “binds”.
